The experiment concerns the target human NDPK-A (nucleoside diphosphate kinase A), full-length recombinant (human) (UniProt P15531). In words: MST.

The chains behind the UniProt entries cited, without tags or fusion partners. Where a name states a change or a piece, a line headed by the entry shows the natural chain unless it says otherwise.
UniProt P15531: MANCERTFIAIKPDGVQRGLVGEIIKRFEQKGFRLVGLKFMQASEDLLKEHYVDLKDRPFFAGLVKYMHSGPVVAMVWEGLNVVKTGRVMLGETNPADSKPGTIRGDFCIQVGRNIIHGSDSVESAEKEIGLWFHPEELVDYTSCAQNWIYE
UniProt P55263: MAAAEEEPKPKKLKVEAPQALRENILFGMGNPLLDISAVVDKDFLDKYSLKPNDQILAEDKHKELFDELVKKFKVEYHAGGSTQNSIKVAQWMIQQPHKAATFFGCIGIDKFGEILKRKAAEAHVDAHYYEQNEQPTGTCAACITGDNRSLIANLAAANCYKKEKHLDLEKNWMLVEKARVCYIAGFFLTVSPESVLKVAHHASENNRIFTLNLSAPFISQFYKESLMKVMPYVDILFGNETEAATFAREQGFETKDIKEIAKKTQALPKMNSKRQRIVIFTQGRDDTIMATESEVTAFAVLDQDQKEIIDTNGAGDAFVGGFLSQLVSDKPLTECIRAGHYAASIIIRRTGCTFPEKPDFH

Results are given in words; binding and its absence hold for the method and conditions named. Some entries that bind do so weakly or less than the wild type.

Take “human ADK (adenosine kinase), recombinant (from UniProt P55263 2-362) (enzyme)”: the binding entry is given as “binds”.
